Data: PubChem BioAssay AID540256 (National Center for Advancing Translational Sciences (NCATS), 2011)
In all, about 300,000 compounds went through this assay and about 3,700 (1.2%) were called active. This list was built around the results that the source calls inconclusive (neither active nor inactive); the mix of calls is not that of the screen. Calls follow the shape of the full dose curve; tested in HEK293 cells. A potency beside an inconclusive call is a rough fit, not a confirmed value.

Experiment: qHTS for Inhibitors of binding or entry into cells for Lassa Virus; also: nearly all actives have a fitted effect of over 50% in size
Conditions: Lassa virus pseudotype entry inhibition, cell reporter; activity change, negative = inhibition: at 37.9 µM (top of the series) unless noted
% is scaled to controls: 0 for no effect and ±100 for the full control effect; potency is read from the fitted curve at half-maximal effect.

Row | Compound | Potency | activity change, negative = inhibition
1 | O=C(COC(=O)CCC(=O)Nc1nccs1)NCc1ccco1 | inconclusive: 5.8 µM [activator, full curve, poor fit] | 
2 | CCn1c(O)c(/C=N/N=C/c2ccc(OC)cc2)c2cc(C3=NNC(=O)CC3)ccc21 | inconclusive: 3.55 µM [inhibitor, partial curve, poor fit] | 
3 | CCN(CC)c1cc2c(cc1F)c(=O)c(S(=O)(=O)c1cc(C)ccc1C)cn2Cc1ccccc1 | inconclusive: 17.8 µM [inhibitor, single point] | 
4 | Cc1ccc(N2CC(C(=O)N3CCC(C(=O)NCCCOC(C)C)CC3)CC2=O)cc1 (stereo unspecified) | inconclusive: 3.55 µM [inhibitor, single point] | 
5 | CCCc1nc(SCC(=O)Nc2cc(C)on2)c2ccccc2n1 | inconclusive: 29.1 µM [inhibitor, single point] | 
6 | COc1ccc(-c2nn(C)c(=O)c3ccccc23)cc1NC(=O)COc1ccc(C)cc1 | active: 5.8 µM | 
7 | COc1ccccc1N1CCN(C(=O)c2ccccc2SCC(=O)N2CCCC2)CC1 |  | inactive: -2.17%
8 | CC(C)CN(C(=O)COC(=O)Cc1ccc(Cl)cc1)c1c(N)n(Cc2ccccc2)c(=O)[nH]c1=O | inconclusive: 14.1 µM [inhibitor, single point] | 
9 | CN(Cc1ccccc1)S(=O)(=O)c1ccc(F)c(C(=O)Nc2cccc(Cl)c2Cl)c1 | inconclusive: 10 µM [activator, partial curve] | 
10 | CC1CN(S(=O)(=O)c2ccc(C(=O)NCCCn3ccnc3)cc2)CC(C)O1 (stereo unspecified) | inconclusive: 6.31 µM [inhibitor, full curve, poor fit] | 
11 | Cc1ccc(C)c(Nc2nc(-c3cccnc3)cs2)c1 |  | inactive: -10.9% [at 46.1 µM]
12 | COc1ccc(-c2nc3sc(CCNC(=O)c4cc(Cl)ccc4OC)c(C)n3n2)cc1 | inconclusive: 22.4 µM [inhibitor, single point] | 
13 | Cc1ccc(-n2c(C)cc(C(=O)CN3CCOCC3)c2C)cc1C | inconclusive: 29.1 µM [inhibitor, single point] | 
14 | O=C(Cc1ccccc1)Nc1ccccc1N1CCN(c2ccccc2)CC1 | inconclusive: 29.1 µM [inhibitor, single point] | 
15 | CC(C)COC(=O)c1ccc2c(c1O)C(=O)c1ccccc1C2=O | inconclusive: 16.4 µM [inhibitor, single point] | 
16 | Cc1oc2c(cc(NS(=O)(=O)c3ccc4c5c(cccc35)C(=O)N4)c3ccccc32)c1C(=O)OC(C)C | inconclusive: 20.6 µM [inhibitor, single point] | 
17 | Cc1ccc2cc(CCNC(=O)c3ccc(S(=O)(=O)N4CCOCC4)cc3)c(=O)[nH]c2c1C |  | inactive: -0.0604%
18 | CCOC(=O)CSc1nnc2n1C(C)(C)Cc1ccccc1-2 |  | inactive: 12.7%
19 | CNCc1nc2ccccc2[nH]1 |  | inactive: 2.04%
20 | CN1C(=O)C(=O)/C(=C(/O)c2ccc(Br)cc2)C1c1ccc(Cl)cc1 (stereo unspecified) |  | inactive: 9.98% [at 46.1 µM]
21 | CCOc1ccc(S(=O)(=O)N(CC)CC(=O)NCc2cccnc2)cc1 |  | inactive: 3.4%
22 | C=CCn1c(P(=O)(O)c2ccccc2)nc2ccccc21 |  | inactive: 22.5%
23 | CC(NS(=O)(=O)c1ccccc1)C(=O)NCc1ccco1 (stereo unspecified) |  | inactive: -0.404%

Reformatted: results already given.
CCCc1nc(SCC(=O)Nc2cc(C)on2)c2ccccc2n1
  Potency: inconclusive: 29.1 µM [inhibitor, single point]
COc1ccc(-c2nn(C)c(=O)c3ccccc23)cc1NC(=O)COc1ccc(C)cc1
  Potency: active: 5.8 µM
COc1ccccc1N1CCN(C(=O)c2ccccc2SCC(=O)N2CCCC2)CC1
  activity change, negative = inhibition: inactive: -2.17%
CC(C)CN(C(=O)COC(=O)Cc1ccc(Cl)cc1)c1c(N)n(Cc2ccccc2)c(=O)[nH]c1=O
  Potency: inconclusive: 14.1 µM [inhibitor, single point]

Continuation:

Row | Compound | Potency | activity change, negative = inhibition
24 | COc1ccc2nc(C)cc(Sc3nc4ccccc4s3)c2c1 | active: 15.8 µM | 
25 | CCn1c2ccccc2c2cc(/C=N/NC(=O)c3ccncc3)ccc21 | active: 5.62 µM | 
26 | COC(=O)CNC(c1ccccc1)c1cc(Br)ccc1N (stereo unspecified) |  | inactive: 5.28% [at 46.1 µM]
27 | CCCn1nnc(NC(=O)c2cc3ccccc3o2)n1 |  | inactive: 4.31%
28 | O=C(CCl)NCc1c(Cl)cccc1-n1cccc1 | inconclusive: 29.1 µM [inhibitor, single point] | 
29 | COc1ccc(CCN2C(=O)c3oc4ccc(F)cc4c(=O)c3C2c2ccc(C(C)(C)C)cc2)cc1 (stereo unspecified) | inconclusive: 11.2 µM [activator, single point] | 
30 | CC1CC(C)(C)CC2(C1)NC(=O)N(CC(=O)N1CCN(Cc3ccc(C#N)cc3)CC1)C2=O (stereo unspecified) | inconclusive: 0.891 µM [inhibitor, partial curve, poor fit] | 
31 | Cc1[nH]c2ccccc2c1C1=CCNCC1 |  | inactive: -5.68%
32 | O=C(CSCC(=O)N1CCCc2ccccc21)Nc1nc(-c2ccccc2)cs1 | inconclusive: 29.1 µM [inhibitor, single point] | 
33 | COc1ccccc1N1CCN(c2ncnc3c2cnn3C)CC1 | inconclusive: 5.62 µM [inhibitor, single point] | 
34 | Oc1ccc(/C=N/N(Cc2ccccc2)c2ccccc2)c(O)c1O | inconclusive: 39.8 µM [inhibitor, partial curve, poor fit] | 
35 | COc1ccc(N=[N+]([O-])c2ccc(OC)cc2)cc1 | inconclusive: 12.6 µM [inhibitor, partial curve, poor fit] | 
36 | CC1=NN(C(N)=S)C(=O)C1N=Nc1ccccc1C (stereo unspecified) |  | inactive: 3.56%
37 | O=C(CN1C2CCCC1CC(NC(=O)c1ccccc1)C2)Nc1nccs1 (stereo unspecified) |  | inactive: -23.6%
38 | O=C(CSc1ccccc1)Nc1ccc2c(c1)OCO2 | inconclusive: 5.62 µM [inhibitor, single point] | 
39 | Cc1ccc(-n2cc(CN(C)Cc3ncc[nH]3)c(-c3cccc(C)c3)n2)cc1 | inconclusive: 25.1 µM [inhibitor, single point] | 
40 | CCc1ccc(C(=O)COC(=O)C(Cc2c[nH]c3ccccc23)NC(=O)c2ccc(Br)cc2)cc1 (stereo unspecified) |  | inactive: -7.48% [at 46.1 µM]
41 | CCCc1cc(-c2n[nH]c(=S)n2CC(C)C)cs1 | inconclusive: 0.366 µM [inhibitor, partial curve, poor fit] | 
42 | Cc1csc(NC(=O)CSc2nnc(-c3ccco3)n2C)n1 |  | inactive: 9.7%
43 | COc1ccc(S(=O)(=O)N(CCc2ccccc2)CC(=O)Nc2cccc(OC)c2)cc1 | inconclusive: 5.62 µM [inhibitor, full curve, poor fit] | 
44 | CCOC(=O)c1cccc(NC(=O)C2CCN(S(=O)(=O)c3ccc4c(c3)oc(=O)n4C)CC2)c1 |  | inactive: -4.87% [at 46.1 µM]
45 | COc1ccc(NC(=O)CCOc2ccc(C)cc2)cc1S(=O)(=O)N1CCOCC1 |  | inactive: -0.618%
46 | COc1ccccc1NS(=O)(=O)c1ccc2oc(SCc3ccc(F)cc3)nc2c1 | inconclusive: 29.1 µM [inhibitor, single point] | 
